This is one part of the list.

This experiment addresses T1, OsSMF1 (Oryza sativa, UniProt Q6ZLB0 1-436).
T1 sequence: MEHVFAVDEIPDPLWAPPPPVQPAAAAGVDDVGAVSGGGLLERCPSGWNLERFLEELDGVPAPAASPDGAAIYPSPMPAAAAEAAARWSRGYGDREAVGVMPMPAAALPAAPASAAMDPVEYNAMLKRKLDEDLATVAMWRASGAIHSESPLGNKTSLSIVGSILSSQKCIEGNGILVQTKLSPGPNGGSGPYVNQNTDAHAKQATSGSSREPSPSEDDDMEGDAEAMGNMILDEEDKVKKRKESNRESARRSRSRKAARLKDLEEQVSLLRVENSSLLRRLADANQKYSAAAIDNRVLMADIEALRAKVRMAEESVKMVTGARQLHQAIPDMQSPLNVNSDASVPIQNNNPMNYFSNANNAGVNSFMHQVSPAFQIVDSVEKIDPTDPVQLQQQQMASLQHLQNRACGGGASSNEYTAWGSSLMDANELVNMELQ
Kind of experiment: protein-binding microarray (RPBM); PBS, 2% BSA, 51.3 ng/ul salmon testes DNA, 50 uM zinc acetate, 200 nM TF, 25 C, 1 h; high values mean tight binding. The note with it: protein: recombinant; tags: N-terminal polyhistidine and DsRed monomer fusion (pET32a); chain copies: 2; label: CyDye5-dUTP incorporated in the synthesized complementary strand; 3' TTTTT single-stranded linker to array surface; dsDNA, one strand shown. Put shortly:
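Ni–NTA purification followed expression in E. coli BL21-CodonPlus of transcription factors fused N-terminally to a polyhistidine tag and DsRed. At 200 nM in PBS with 2% BSA, salmon testes DNA and 50 µM zinc acetate, the protein was incubated for 1 h at 25 °C with a custom Agilent array that had been primer-extended with Cy5-dUTP and blocked with 2% BSA. After washing, the array was read on an Axon 4000B scanner. The binding signal is per-feature fluorescence intensity in arbitrary units.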
Consider “TTGTGCAGTCTCATCTACCTGTGACGTTTACAGTTTTGACCGGAGTCACCTAGTGCAG”, for which the binding signal is 4800 fluorescence intensity (a.u.). With “TTACTTGAAAGCGTGACGCGGACACGTGGCGCCTCCGTAGCGGAGTCACCTAGTGCAG” the figure was 12700 fluorescence intensity (a.u.). Regarding “ATGTGTGTGGGATATTACGCTGCTAAAACTTTGTGTTTCTCGGAGTCACCTAGTGCAG”, the binding signal is 3410 fluorescence intensity (a.u.). On to “GCGACGGCGGTGGTGGTGGGGTGTGGACGGCTAGGGTTTACGGAGTCACCTAGTGCAG”, for which the binding signal is 5060 fluorescence intensity (a.u.). Consider “TTCCTACGTGCTGCCGCGCGCCACATATTAATCAGCCGCACGGAGTCACCTAGTGCAG”, for which the binding signal was 3840 fluorescence intensity (a.u.). Consider “AAGGATGGATATGAGCCCTACCTCCACATCAGTAGCTATCCGGAGTCACCTAGTGCAG”, for which the binding signal is 4600 fluorescence intensity (a.u.).

As to “TTAGTACCACTGCCACCCTGTCATCTCTGATAGGACTATACGGAGTCACCTAGTGCAG”, the binding signal is 3340 fluorescence intensity (a.u.).

Consider “TGCCATGTAAGCGCCACGTCAATGCCACGTGGGACAAAGACGGAGTCACCTAGTGCAG”, for which the binding signal was 21800 fluorescence intensity (a.u.). Turning to “TTCAAATATCATCATATCCGTGGCACGCCATGTTTGCTTTCGGAGTCACCTAGTGCAG”, the binding signal was 3280 fluorescence intensity (a.u.). As to “TAACCCCGGTTTTGTCCCACGTGGCGGCTGAGTCACCGTGCGGAGTCACCTAGTGCAG”, the binding signal is 36000 fluorescence intensity (a.u.). With “TTTTATGAGTGAATACAAGCTTGCCTACCATTTGTCACAGCGGAGTCACCTAGTGCAG”, the binding signal is 3380 fluorescence intensity (a.u.).

Consider “CGTGGGCCCCACCCGTGCCAGCTCACCTCATCCCCACCACCGGAGTCACCTAGTGCAG”, for which the binding signal was 12600 fluorescence intensity (a.u.). “CATGCATGCACTGTAACTGAACTTTACAGCATCCAACCAGCGGAGTCACCTAGTGCAG”: the binding signal is 31000 fluorescence intensity (a.u.). Turning to “CAGTTTGAACTGGACAAACGGACACTCAAAACCACACACGCGGAGTCACCTAGTGCAG”, the binding signal was 3260 fluorescence intensity (a.u.). In the case of “AAGGGAAATGATTTACCATCCCTCTTTAAATCTTAACCATCGGAGTCACCTAGTGCAG”, the binding signal is 3600 fluorescence intensity (a.u.). With “CCCTCCCCACCGCCGCCGATCCGAGAGCCTCCACGTCCCCCGGAGTCACCTAGTGCAG” the figure was 6680 fluorescence intensity (a.u.). As to “TTGCTTGCTGCCATAAGCCGCTGAGGTCACCACGGGCGGCCGGAGTCACCTAGTGCAG”, the binding signal was 4170 fluorescence intensity (a.u.).

“GAGCGATGGGGCCTACATGTCAGTCATGAAGTCAGGGAGGCGGAGTCACCTAGTGCAG”: the binding signal was 3450 fluorescence intensity (a.u.). As for “TTTCATTAGTGCTACGATTGCATTTTGTCAATTCAATAATCGGAGTCACCTAGTGCAG”, the binding signal was 3340 fluorescence intensity (a.u.).

Regarding “ATTTGTGATATGCCACCTGACCCACATGTCATTGACTCATCGGAGTCACCTAGTGCAG”, the binding signal was 8220 fluorescence intensity (a.u.).

For the sequence “GTATGTGCCACGTCAGCGAAACCGTTCTCTAAAACCACCTCGGAGTCACCTAGTGCAG”, the binding signal is 22400 fluorescence intensity (a.u.). Regarding “TCTCCAACCCCAAAGGTTGTGTGTGTTGTTGTGTACAGGTCGGAGTCACCTAGTGCAG”, the binding signal was 3270 fluorescence intensity (a.u.). For “CCTGGCGCGCCAACTGTCGAAACATGAATTCGGCAATAATCGGAGTCACCTAGTGCAG”, the binding signal is 3850 fluorescence intensity (a.u.). “AGGAGAGGTTGATGTGGCCACGTGGCACGCTCCGATTGGCCGGAGTCACCTAGTGCAG”: the binding signal was 26100 fluorescence intensity (a.u.). On to “AAACAAATGCCTGTGAGGGTTGGCAGTGTCAGGGATGCTACGGAGTCACCTAGTGCAG”, for which the binding signal is 3360 fluorescence intensity (a.u.). In the case of “CCCTTAGTAATAGGCACGTAAATACTCTTTTCTACTGTAACGGAGTCACCTAGTGCAG”, the binding signal is 3180 fluorescence intensity (a.u.). As for “GCGGCTGGCGACGGGGACGGCGCCGACGTGGGTTGGGGAACGGAGTCACCTAGTGCAG”, the binding signal is 3140 fluorescence intensity (a.u.).

Turning to “ATCTGACATACTCGAGACAACTCATATACTCCATATGTTACGGAGTCACCTAGTGCAG”, the binding signal is 3530 fluorescence intensity (a.u.). For the sequence “CGATCGAACGAGTCCACCACACGACACAACATCACACAACCGGAGTCACCTAGTGCAG”, the binding signal is 3390 fluorescence intensity (a.u.).

As for “TAGATCCCAACGCCCCATAAAGTGCCACGTAGTCGGTTTACGGAGTCACCTAGTGCAG”, the binding signal is 11200 fluorescence intensity (a.u.). The figure for “CTCGCCCGTCGTCCCTCGGCGCCTCGCCATCGCCGGCGGTCGGAGTCACCTAGTGCAG” is 27500 fluorescence intensity (a.u.); for “TCCTCCTTCCCCTTTCCCTTCCTCCTCTCCACGCAGCAGCCGGAGTCACCTAGTGCAG” it is 3470 fluorescence intensity (a.u.); for “TAGCTGCCACATAGCTGGTGCCTGGTGGCGAGCGCAACGACGGAGTCACCTAGTGCAG” it is 3400 fluorescence intensity (a.u.). For the sequence “CCGCACCCCTGGGTCATCGTCGAGGCCACCGTTGCCGAGGCGGAGTCACCTAGTGCAG”, the binding signal is 3210 fluorescence intensity (a.u.). For the sequence “TGTGCTCGCCACATCCGATCCATCGATTCGTGGAATTCTCCGGAGTCACCTAGTGCAG”, the binding signal was 4280 fluorescence intensity (a.u.). With “CAGCCCGGAGCGTTCGTGGGTTCGGCCCAACCCCAAGTACCGGAGTCACCTAGTGCAG” the figure was 4500 fluorescence intensity (a.u.); with “CCACCACCACCACGCCACGGCAGCCGCACCGCACCGCACCCGGAGTCACCTAGTGCAG”, 5700 fluorescence intensity (a.u.); with “TAATTATGTTTGCCAGCAAATCCGGGAAATTAAAACCTTACGGAGTCACCTAGTGCAG”, 14400 fluorescence intensity (a.u.).

Take “GGCGACCATCTCCGCCGCCACGGTCATCGCCGTGTCGGCCCGGAGTCACCTAGTGCAG”: the binding signal was 5530 fluorescence intensity (a.u.). As to “CTGCTTCGTCGTAACCCTTAGCGAGTAACGTGGCATATTCCGGAGTCACCTAGTGCAG”, the binding signal is 5010 fluorescence intensity (a.u.). As for “AGCTATGAATATCATTGTGACGTCAATGTCCTTACAAAATCGGAGTCACCTAGTGCAG”, the binding signal was 4060 fluorescence intensity (a.u.). As for “ACGACATGCGTGCAAATGCATTGTAAATTTGTAATACGGCCGGAGTCACCTAGTGCAG”, the binding signal is 22300 fluorescence intensity (a.u.).

These data come from publication PMC7819943, “Rice protein-binding microarrays: a tool to detect cis-acting elements near promoter regions in rice”.
